PubChem BioAssay AID652243 – Drosophila RNAi Screening Center, 2013

Screen: 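Fly genes required for human androgen receptor driven transcription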 (primary screen)
Cells: Drosophila S2R+ cells
Reagents: long dsRNA against Drosophila genes
Duration: 72 h (48 h, then 24 h hormone)
Conditions: synthetic androgen R1881 at 10 nM for 24 h
Measurement: 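Firefly light from an androgen-responsive reporter and Renilla control light per well, raw and unnormalised, for each of two replicates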
Scale: firefly reporter light: higher = more light from androgen-responsive reporter; Renilla control light: higher = more constitutive control signal (cell number, transfection)
Active means: 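Hit when the log firefly-to-Renilla ratio dropped or increased by a fixed fold versus the mean of GFP or LacZ controls across duplicate plates; lowering cut given as 1.5 and as 3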
Calls: active = hit: reporter lowered or raised; inactive = no hit
In all, the deposit lists about 24,000 reagents; shown is a random part of those with a known target gene and a result. In the full data, 246 (1%) got an active call. 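Plates not normalised; calls are printed but the firefly/Renilla ratio behind them is not deposited; fold cut for lowering reported inconsistently.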 Raw values are not corrected between plates. Unmarked entries are inactive. Not stated in the record: the amount of reagent.

| target | DRSC id | firefly reporter light, replicate 1 | firefly reporter light, replicate 2 | Renilla control light, replicate 1 | Renilla control light, replicate 2 |
| --- | --- | --- | --- | --- | --- |
| Pms2 (GeneID 36705) | DRSC07511 | 1.60e6 | 9.01e5 | 2.30e6 | 1.27e6 |
| Acer (GeneID 34189) | DRSC01852 | 7.11e5 | 7.00e5 | 1.97e6 | 1.62e6 |
| CG9265 (GeneID 35369) | DRSC03178 | 1.45e5 | 1.26e5 | 1.51e6 | 1.02e6 |
| CG9265 (GeneID 35369) | DRSC03179 | 1.75e5 | 2.35e5 | 1.46e6 | 1.86e6 |
| CG11563 (GeneID 43735) | DRSC14327 | 3.20e5 | 2.86e5 | 2.54e6 | 2.92e6 |
| CG7772 (GeneID 32776) | DRSC20056 | 70837 | 99022 | 8.74e5 | 1.11e6 |
| CG17784 (GeneID 42909) | DRSC15268 | 1.56e5 | 2.21e5 | 3.04e6 | 2.02e6 |
| Kif3C (GeneID 43820) | DRSC17209 | 2.15e5 | 2.88e5 | 3.53e6 | 2.66e6 |
| Kif3C (GeneID 43820) | DRSC17210 | 1.91e5 | 2.02e5 | 2.78e6 | 2.49e6 |
| CG4364 (GeneID 34287) | DRSC02742 | 1.57e6 | 9.06e5 | 2.12e6 | 1.63e6 |
| CG4364 (GeneID 34287) | DRSC29531 | 3.06e5 | 3.78e5 | 9.16e5 | 9.16e5 |
| CG9029 (GeneID 33815) | DRSC03129 | 2.12e5 | 2.24e5 | 2.30e6 | 1.98e6 |
| TrissinR (GeneID 33812) | DRSC02334 | 1.20e5 | 1.86e5 | 1.47e6 | 1.54e6 |
| TrissinR (GeneID 33812) | DRSC02335 | 72003 | 69684 | 1.54e6 | 9.21e5 |
| TrissinR (GeneID 33812) | DRSC02336 | 1.37e5 | 1.09e5 | 1.02e6 | 9.51e5 |
| TrissinR (GeneID 33812) | DRSC25084 | 7.26e5 | 6.32e5 | 8.60e5 | 8.96e5 |
| TrissinR (GeneID 33812) | DRSC26283 | 4.24e5 | 3.20e5 | 7.27e5 | 4.84e5 |
| CG4783 (GeneID 42381) | DRSC15644 | 5.68e5 | 5.03e5 | 2.27e6 | 3.13e6 |
| Rsod (GeneID 43586) | DRSC15424 | 2.50e5 | 1.99e5 | 2.11e6 | 2.65e6 |
| CG6178 (GeneID 42867) | DRSC15984 | 89918 | 68961 | 5.57e5 | 6.35e5 |
| CG15282 (GeneID 34853) | DRSC23090 | 42840 | 62802 | 3.39e5 | 4.79e5 |
| CG15282 (GeneID 34853) | DRSC29233 | 5.43e5 | 6.47e5 | 1.13e6 | 1.28e6 |
| beag (GeneID 41091) | DRSC15296 | 36570 | 53008 | 3.28e5 | 3.49e5 |
| GstE9 (GeneID 246581) | DRSC06679 | 87572 | 1.99e5 | 1.12e6 | 1.65e6 |
| GstE9 (GeneID 246581) | DRSC29204 | 6.46e5 | 4.84e5 | 1.36e6 | 1.15e6 |
| GstZ1 (GeneID 41132) | DRSC16478 | 96946 | 1.81e5 | 5.73e5 | 9.68e5 |
| Ugt35A1 (GeneID 41334) | DRSC16892 | 46602 | 48040 | 3.22e5 | 4.46e5 |
| Ugt35A1 (GeneID 41334) | DRSC25438 | 5.81e5 | 3.77e5 | 1.76e6 | 6.12e5 |

Continued (8 carried over from the part before).
| target | DRSC id | firefly reporter light, replicate 1 | firefly reporter light, replicate 2 | Renilla control light, replicate 1 | Renilla control light, replicate 2 |
| --- | --- | --- | --- | --- | --- |
| CG15282 (GeneID 34853) | DRSC23090 | 42840 | 62802 | 3.39e5 | 4.79e5 |
| CG15282 (GeneID 34853) | DRSC29233 | 5.43e5 | 6.47e5 | 1.13e6 | 1.28e6 |
| beag (GeneID 41091) | DRSC15296 | 36570 | 53008 | 3.28e5 | 3.49e5 |
| GstE9 (GeneID 246581) | DRSC06679 | 87572 | 1.99e5 | 1.12e6 | 1.65e6 |
| GstE9 (GeneID 246581) | DRSC29204 | 6.46e5 | 4.84e5 | 1.36e6 | 1.15e6 |
| GstZ1 (GeneID 41132) | DRSC16478 | 96946 | 1.81e5 | 5.73e5 | 9.68e5 |
| Ugt35A1 (GeneID 41334) | DRSC16892 | 46602 | 48040 | 3.22e5 | 4.46e5 |
| Ugt35A1 (GeneID 41334) | DRSC25438 | 5.81e5 | 3.77e5 | 1.76e6 | 6.12e5 |
| CG6428 (GeneID 31351) | DRSC18402 | 4.17e5 | 2.91e5 | 4.25e6 | 2.70e6 |
| CG9331 (GeneID 35347) | DRSC03206 | 1.80e6 | 2.25e6 | 2.00e6 | 2.72e6 |
| CG9331 (GeneID 35347) | DRSC28815 | 3.91e5 | 3.69e5 | 7.44e5 | 1.23e6 |
| CG31730 (GeneID 318920) | DRSC01308 | 2.83e5 | 2.34e5 | 6.25e5 | 5.21e5 |
| CG5639 (GeneID 43314) | DRSC15851 | 1.75e5 | 2.11e5 | 2.77e6 | 2.75e6 |
| LS2 (GeneID 37681) | DRSC04340 | 1.92e5 | 2.17e5 | 1.28e6 | 1.95e6 |
| CG5281 (GeneID 41375) | DRSC15761 | 2.24e5 | 2.10e5 | 3.33e6 | 3.30e6 |
| Fhos (GeneID 39004) | DRSC08943 | 1.18e5 | 2.06e5 | 2.03e5 | 2.71e5 |
| Fhos (GeneID 39004) | DRSC10545 | 1.08e6 | 4.92e5 | 1.59e6 | 1.34e6 |
| Fhos (GeneID 39004) | DRSC10546 | 7.35e5 | 1.01e6 | 1.54e6 | 2.82e6 |
| Fhos (GeneID 39004) | DRSC10547 | 4.05e5 | 2.63e5 | 4.23e6 | 2.45e6 |
| Fhos (GeneID 39004) | DRSC28627 | 5.70e5 | 4.84e5 | 1.44e6 | 1.45e6 |
| Dysb (GeneID 40052) | DRSC10730 | 2.76e5 | 2.49e5 | 3.01e6 | 2.75e6 |
| egr (GeneID 36054) | DRSC06233 | 4.18e5 | 3.82e5 | 2.34e6 | 2.22e6 |
| nht (GeneID 34902) | DRSC01976 | 2.65e5 | 3.61e5 | 2.71e6 | 2.47e6 |
| Rtel1 (GeneID 31497) | DRSC18343 | 2.51e5 | 2.54e5 | 2.70e6 | 2.59e6 |
| Rtel1 (GeneID 31497) | DRSC26293 | 2.67e5 | 2.99e5 | 5.85e5 | 5.28e5 |
| Tengl3 (GeneID 33404) | DRSC22288 | 1.01e6 | 9.66e5 | 1.21e6 | 1.02e6 |
| Tengl3 (GeneID 33404) | DRSC27773 | 2.50e5 | 1.54e5 | 2.65e5 | 6.28e5 |
| GstD3 (GeneID 48336) | DRSC15571 | 1.07e5 | 1.39e5 | 2.59e6 | 2.54e6 |
| GstD3 (GeneID 48336) | DRSC24755 | 4.12e5 | 4.24e5 | 5.31e5 | 5.35e5 |
| CG15930 (GeneID 31446) | DRSC18107 | 3.52e5 | 2.91e5 | 2.81e6 | 2.69e6 |
| CG15930 (GeneID 31446) | DRSC29656 | 3.01e5 | 4.06e5 | 7.13e5 | 7.13e5 |
| Gr89a (GeneID 42007) | DRSC15023 | 1.15e5 | 1.28e5 | 1.37e6 | 1.99e6 |
| sofe (GeneID 32016) | DRSC19751 | 1.22e5 | 1.37e5 | 9.28e5 | 8.70e5 |
| BBS4 (GeneID 36167) | DRSC06352 | 4.10e5 | 4.01e5 | 2.55e6 | 3.53e6 |
| BBS4 (GeneID 36167) | DRSC28073 | 5.41e5 | 5.41e5 | 8.57e5 | 9.81e5 |
| CG9286 (GeneID 41690) | DRSC16467 | 32617 | 89497 | 2.34e5 | 2.45e5 |
| CG9286 (GeneID 41690) | DRSC28102 | 1.03e6 | 1.02e6 | 1.56e6 | 1.76e6 |
| Qsox4 (GeneID 318720) | DRSC14224 | 67353 | 61624 | 4.73e5 | 4.47e5 |
| Pp2B-14D (GeneID 32624) | DRSC20270 | 3.60e5 | 3.44e5 | 2.18e6 | 2.13e6 |
| Pp2B-14D (GeneID 32624) | DRSC23315 | 7.45e5 | 9.57e5 | 1.87e6 | 1.78e6 |
| byn (GeneID 39349) | DRSC11332 | 2.68e5 | 3.17e5 | 3.67e6 | 3.21e6 |
| byn (GeneID 39349) | DRSC29142 | 4.99e5 | 7.27e5 | 9.17e5 | 1.20e6 |
| Cip4 (GeneID 38534) | DRSC08469 | 4.79e5 | 4.42e5 | 1.23e6 | 1.01e6 |
| Cip4 (GeneID 38534) | DRSC21740 | 2.71e5 | 2.88e5 | 1.43e6 | 1.94e6 |
| Ddx56 (GeneID 33118) | DRSC20567 | 1.22e5 | 1.54e5 | 5.85e5 | 4.66e5 |
| Ddx56 (GeneID 33118) | DRSC26165 | 2.76e5 | 2.19e5 | 6.73e5 | 5.66e5 |
| CG12607 (GeneID 38547) | DRSC08287 | 1.38e5 | 1.22e5 | 1.95e6 | 1.80e6 |
| clumsy (GeneID 35394) | DRSC03111 | 1.08e5 | 1.57e5 | 9.86e5 | 1.74e6 |
| TfAP-2 (GeneID 40398) | DRSC11601 | 2.76e5 | 2.97e5 | 2.23e6 | 2.46e6 |
| ArgRS-m (GeneID 40929) | DRSC14186 | 2.05e5 | 2.62e5 | 1.73e6 | 1.63e6 |
| CG14947 (GeneID 34628) | DRSC02429 | 1.41e5 | 1.79e5 | 1.16e6 | 1.59e6 |
| CG10064 (GeneID 38761) | DRSC09689 | 1.13e5 | 1.64e5 | 1.43e6 | 1.60e6 |
| Coa7 (GeneID 3355158) | DRSC20967 | 1.39e5 | 1.55e5 | 3.36e5 | 3.24e5 |
| Coa7 (GeneID 3355158) | DRSC27224 | 1.98e5 | 2.13e5 | 6.91e5 | 7.27e5 |
